First the molecules themselves.
T1: SPRY domain-containing protein 7 (human) (UniProt Q5W111)
T1 sequence: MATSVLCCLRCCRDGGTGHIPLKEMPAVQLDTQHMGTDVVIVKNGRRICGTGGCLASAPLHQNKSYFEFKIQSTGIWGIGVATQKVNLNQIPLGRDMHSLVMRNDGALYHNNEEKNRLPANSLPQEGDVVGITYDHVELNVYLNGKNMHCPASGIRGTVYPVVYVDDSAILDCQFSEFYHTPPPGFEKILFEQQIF

Protein sequences, listed by entry. Tags and fused reporters are not part of them. Residues count along the entry.
UniProt Q9Y4B6: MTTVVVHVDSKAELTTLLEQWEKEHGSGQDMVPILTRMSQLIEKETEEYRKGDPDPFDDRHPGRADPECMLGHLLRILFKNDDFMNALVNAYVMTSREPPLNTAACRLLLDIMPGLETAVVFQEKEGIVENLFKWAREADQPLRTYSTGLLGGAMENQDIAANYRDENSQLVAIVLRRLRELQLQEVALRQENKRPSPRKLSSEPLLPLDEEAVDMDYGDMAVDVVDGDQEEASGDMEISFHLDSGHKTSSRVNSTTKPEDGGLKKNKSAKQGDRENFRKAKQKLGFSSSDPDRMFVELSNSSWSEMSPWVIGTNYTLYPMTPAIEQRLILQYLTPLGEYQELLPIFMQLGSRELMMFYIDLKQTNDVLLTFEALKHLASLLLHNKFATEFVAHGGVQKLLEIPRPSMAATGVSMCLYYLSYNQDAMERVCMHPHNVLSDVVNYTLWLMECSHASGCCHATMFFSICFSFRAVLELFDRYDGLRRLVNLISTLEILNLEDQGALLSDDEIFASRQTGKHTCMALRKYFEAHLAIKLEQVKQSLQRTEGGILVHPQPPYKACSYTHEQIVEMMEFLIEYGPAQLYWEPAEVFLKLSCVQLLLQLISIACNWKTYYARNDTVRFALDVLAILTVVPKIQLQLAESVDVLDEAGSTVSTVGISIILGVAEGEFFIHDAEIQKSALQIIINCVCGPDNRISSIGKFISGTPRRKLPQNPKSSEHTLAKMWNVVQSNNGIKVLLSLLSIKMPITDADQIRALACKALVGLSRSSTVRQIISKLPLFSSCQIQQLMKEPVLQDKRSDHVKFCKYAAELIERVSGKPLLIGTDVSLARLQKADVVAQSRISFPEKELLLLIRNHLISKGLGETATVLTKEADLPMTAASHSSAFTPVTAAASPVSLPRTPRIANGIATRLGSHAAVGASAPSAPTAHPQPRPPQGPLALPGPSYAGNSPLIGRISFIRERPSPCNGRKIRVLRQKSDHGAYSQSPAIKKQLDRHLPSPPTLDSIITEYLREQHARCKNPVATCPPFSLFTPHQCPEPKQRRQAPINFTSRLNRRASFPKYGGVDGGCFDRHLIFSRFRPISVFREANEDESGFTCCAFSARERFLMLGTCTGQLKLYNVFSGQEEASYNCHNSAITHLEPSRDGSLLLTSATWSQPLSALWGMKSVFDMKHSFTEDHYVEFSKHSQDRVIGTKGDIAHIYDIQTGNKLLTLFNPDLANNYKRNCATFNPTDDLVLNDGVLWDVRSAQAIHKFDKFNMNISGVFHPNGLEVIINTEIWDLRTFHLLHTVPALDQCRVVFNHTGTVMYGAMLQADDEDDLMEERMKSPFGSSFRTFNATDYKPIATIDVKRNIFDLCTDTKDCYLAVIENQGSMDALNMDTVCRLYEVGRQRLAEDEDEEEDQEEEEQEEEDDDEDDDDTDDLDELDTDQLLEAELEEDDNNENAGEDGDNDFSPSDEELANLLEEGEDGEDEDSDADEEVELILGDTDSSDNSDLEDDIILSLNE
UniProt P18510, residues 26-177: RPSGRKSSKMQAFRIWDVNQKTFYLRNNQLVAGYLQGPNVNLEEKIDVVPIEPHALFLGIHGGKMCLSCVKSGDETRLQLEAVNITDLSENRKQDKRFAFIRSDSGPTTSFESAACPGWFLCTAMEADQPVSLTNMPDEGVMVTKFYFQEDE
UniProt P00441: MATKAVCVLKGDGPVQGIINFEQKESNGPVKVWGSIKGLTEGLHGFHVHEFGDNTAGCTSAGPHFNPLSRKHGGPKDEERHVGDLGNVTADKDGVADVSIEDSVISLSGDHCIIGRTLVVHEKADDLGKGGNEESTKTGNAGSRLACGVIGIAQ
UniProt Q7Z494: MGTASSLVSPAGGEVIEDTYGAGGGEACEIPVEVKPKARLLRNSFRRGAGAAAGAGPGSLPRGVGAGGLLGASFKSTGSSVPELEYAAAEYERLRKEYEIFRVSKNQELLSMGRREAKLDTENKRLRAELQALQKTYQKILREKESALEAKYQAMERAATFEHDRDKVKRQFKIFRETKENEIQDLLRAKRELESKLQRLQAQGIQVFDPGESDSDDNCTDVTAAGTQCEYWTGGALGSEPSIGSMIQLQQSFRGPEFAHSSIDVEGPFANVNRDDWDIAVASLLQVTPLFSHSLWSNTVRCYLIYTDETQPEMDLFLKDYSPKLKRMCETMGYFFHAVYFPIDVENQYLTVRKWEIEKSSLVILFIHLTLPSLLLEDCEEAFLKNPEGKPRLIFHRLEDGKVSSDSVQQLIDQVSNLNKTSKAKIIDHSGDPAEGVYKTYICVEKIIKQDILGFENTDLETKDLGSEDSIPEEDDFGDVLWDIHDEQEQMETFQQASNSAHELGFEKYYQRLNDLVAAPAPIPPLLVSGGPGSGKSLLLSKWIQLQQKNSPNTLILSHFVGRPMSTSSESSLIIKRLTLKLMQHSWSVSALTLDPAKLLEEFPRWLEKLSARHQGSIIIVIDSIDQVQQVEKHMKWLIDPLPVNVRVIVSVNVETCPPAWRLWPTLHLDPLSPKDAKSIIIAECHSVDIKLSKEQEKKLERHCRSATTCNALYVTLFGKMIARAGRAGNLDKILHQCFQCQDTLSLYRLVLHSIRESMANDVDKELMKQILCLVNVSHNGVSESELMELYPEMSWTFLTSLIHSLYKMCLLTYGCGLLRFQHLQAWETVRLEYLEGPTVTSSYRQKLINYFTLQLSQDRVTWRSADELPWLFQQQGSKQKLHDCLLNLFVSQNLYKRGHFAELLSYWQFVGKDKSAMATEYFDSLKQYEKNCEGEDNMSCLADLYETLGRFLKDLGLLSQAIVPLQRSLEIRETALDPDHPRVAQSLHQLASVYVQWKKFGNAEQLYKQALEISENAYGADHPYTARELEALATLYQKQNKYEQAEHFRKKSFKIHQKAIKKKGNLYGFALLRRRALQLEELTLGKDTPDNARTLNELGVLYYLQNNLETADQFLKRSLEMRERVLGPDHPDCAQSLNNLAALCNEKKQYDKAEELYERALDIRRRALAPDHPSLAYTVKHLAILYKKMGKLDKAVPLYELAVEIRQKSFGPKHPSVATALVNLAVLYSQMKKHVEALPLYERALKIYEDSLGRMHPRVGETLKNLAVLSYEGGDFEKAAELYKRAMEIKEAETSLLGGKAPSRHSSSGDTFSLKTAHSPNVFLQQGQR

B1: CAPNS2 (protein, UniProt Q96L46 1-248)
chain: MFLAKALLEGADRGLGEALGGLFGGGGQRREGGGRNIGGIVGGIVNFISEAAAAQYTPEPPPTQQHFTSVEASESEEVRRFRQQFTQLAGPDMEVGATDLMNILNKVLSKHKDLKTDGFSLDTCRSIVSVMDSDTTGKLGFEEFKYLWNNIKKWQCVYKQYDRDHSGSLGSSQLRGALQAAGFQLNEQLYQMIVRRYANEDGDMDFNNFISCLVRLDAMFRAFKSLDRDRDGLIQVSIKEWLQLTMYS
B2: A2ML1 (protein, UniProt A8K2U0 18-1454)
chain: EELPNYLVTLPARLNFPSVQKVCLDLSPGYSDVKFTVTLETKDKTQKLLEYSGLKKRHLHCISFLVPPPAGGTEEVATIRVSGVGNNISFEEKKKVLIQRQGNGTFVQTDKPLYTPGQQVYFRIVTMDSNFVPVNDKYSMVELQDPNSNRIAQWLEVVPEQGIVDLSFQLAPEAMLGTYTVAVAEGKTFGTFSVEEYVLPKFKVEVVEPKELSTVQESFLVKICCRYTYGKPMLGAVQVSVCQKANTYWYREVEREQLPDKCRNLSGQTDKTGCFSAPVDMATFDLIGYAYSHQINIVATVVEEGTGVEANATQNIYISPQMGSMTFEDTSNFYHPNFPFSGKIRVRGHDDSFLKNHLVFLVIYGTNGTFNQTLVTDNNGLAPFTLETSGWNGTDVSLEGKFQMEDLVYNPEQVPRYYQNAYLHLRPFYSTTRSFLGIHRLNGPLKCGQPQEVLVDYYIDPADASPDQEISFSYYLIGKGSLVMEGQKHLNSKKKGLKASFSLSLTFTSRLAPDPSLVIYAIFPSGGVVADKIQFSVEMCFDNQVSLGFSPSQQLPGAEVELQLQAAPGSLCALRAVDESVLLLRPDRELSNRSVYGMFPFWYGHYPYQVAEYDQCPVSGPWDFPQPLIDPMPQGHSSQRSIIWRPSFSEGTDLFSFFRDVGLKILSNAKIKKPVDCSHRSPEYSTAMGAGGGHPEAFESSTPLHQAEDSQVRQYFPETWLWDLFPIGNSGKEAVHVTVPDAITEWKAMSFCTSQSRGFGLSPTVGLTAFKPFFVDLTLPYSVVRGESFRLTATIFNYLKDCIRVQTDLAKSHEYQLESWADSQTSSCLCADDAKTHHWNITAVKLGHINFTISTKILDSNEPCGGQKGFVPQKGRSDTLIKPVLVKPEGVLVEKTHSSLLCPKGKVASESVSLELPVDIVPDSTKAYVTVLGDIMGTALQNLDGLVQMPSGCGEQNMVLFAPIIYVLQYLEKAGLLTEEIRSRAVGFLEIGYQKELMYKHSNGSYSAFGERDGNGNTWLTAFVTKCFGQAQKFIFIDPKNIQDALKWMAGNQLPSGCYANVGNLLHTAMKGGVDDEVSLTAYVTAALLEMGKDVDDPMVSQGLRCLKNSATSTTNLYTQALLAYIFSLAGEMDIRNILLKQLDQQAIISGESIYWSQKPTPSSNASPWSEPAAVDVELTAYALLAQLTKPSLTQKEIAKATSIVAWLAKQHNAYGGFSSTQDTVVALQALAKYATTAYMPSEEINLVVKSTENFQRTFNIQSVNRLVFQQDTLPNVPGMYTLEASGQGCVYVQTVLRYNILPPTNMKTFSLSVEIGKARCEQPTSPRSLTLTIHTSYVGSRSSSNMAIVEVKMLSGFSPMEGTNQLLLQQPLVKKVEFGTDTLNIYLDELIKNTQTYTFTISQSVLVTNLKPATIKVYDYYLPDEQATIQYSDPCE
B3: BLMH (protein, UniProt Q13867 1-455)
chain: MSSSGLNSEKVAALIQKLNSDPQFVLAQNVGTTHDLLDICLKRATVQRAQHVFQHAVPQEGKPITNQKSSGRCWIFSCLNVMRLPFMKKLNIEEFEFSQSYLFFWDKVERCYFFLSAFVDTAQRKEPEDGRLVQFLLMNPANDGGQWDMLVNIVEKYGVIPKKCFPESYTTEATRRMNDILNHKMREFCIRLRNLVHSGATKGEISATQDVMMEEIFRVVCICLGNPPETFTWEYRDKDKNYQKIGPITPLEFYREHVKPLFNMEDKICLVNDPRPQHKYNKLYTVEYLSNMVGGRKTLYNNQPIDFLKKMVAASIKDGEAVWFGCDVGKHFNSKLGLSDMNLYDHELVFGVSLKNMNKAERLTFGESLMTHAMTFTAVSEKDDQDGAFTKWRVENSWGEDHGHKGYLCMTDEWFSEYVYEVVVDRKHVPEEVLAVLEQEPIILPAWDPMGALAE
B4: ARG1 (protein, UniProt P05089 1-322)
chain: MSAKSRTIGIIGAPFSKGQPRGGVEEGPTVLRKAGLLEKLKEQECDVKDYGDLPFADIPNDSPFQIVKNPRSVGKASEQLAGKVAEVKKNGRISLVLGGDHSLAIGSISGHARVHPDLGVIWVDAHTDINTPLTTTSGNLHGQPVSFLLKELKGKIPDVPGFSWVTPCISAKDIVYIGLRDVDPGEHYILKTLGIKYFSMTEVDRLGIGKVMEETLSYLLGRKKRPIHLSFDVDGLDPSFTPATGTPVVGGLTYREGLYITEEIYKTGLLSGLDIMEVNPSLGKTPEEVTRTVNTAVAITLACFGLAREGNHKPIDYLNPPK
B5: TYMP (protein, UniProt P19971 11-482)
chain: APPAPGDFSGEGSQGLPDPSPEPKQLPELIRMKRDGGRLSEADIRGFVAAVVNGSAQGAQIGAMLMAIRLRGMDLEETSVLTQALAQSGQQLEWPEAWRQQLVDKHSTGGVGDKVSLVLAPALAACGCKVPMISGRGLGHTGGTLDKLESIPGFNVIQSPEQMQVLLDQAGCCIVGQSEQLVPADGILYAARDVTATVDSLPLITASILSKKLVEGLSALVVDVKFGGAAVFPNQEQARELAKTLVGVGASLGLRVAAALTAMDKPLGRCVGHALEVEEALLCMDGAGPPDLRDLVTTLGGALLWLSGHAGTQAQGAARVAAALDDGSALGRFERMLAAQGVDPGLARALCSGSPAERRQLLPRAREQEELLAPADGTVELVRALPLALVLHELGAGRSRAGEPLRLGVGAELLVDVGQRLRRGTPWLRVHRDGPALSGPQSRALQEALVLSDRAPFAAPSPFAELVLPPQQ
B6: SERPINB5 (protein, UniProt P36952 1-375)
chain: MDALQLANSAFAVDLFKQLCEKEPLGNVLFSPICLSTSLSLAQVGAKGDTANEIGQVLHFENVKDVPFGFQTVTSDVNKLSSFYSLKLIKRLYVDKSLNLSTEFISSTKRPYAKELETVDFKDKLEETKGQINNSIKDLTDGHFENILADNSVNDQTKILVVNAAYFVGKWMKKFSESETKECPFRVNKTDTKPVQMMNMEATFCMGNIDSINCKIIELPFQNKHLSMFILLPKDVEDESTGLEKIEKQLNSESLSQWTNPSTMANAKVKLSIPKFKVEKMIDPKACLENLGLKHIFSEDTSDFSGMSETKGVALSNVIHKVCLEITEDGGDSIEVPGARILQHKDELNADHPFIYIIRHNKTRNIIFFGKFCSP

These are yes or no findings as the source states them, for the method shown. Binding seen in cells or lysates may run through a third protein. Here binding means that the protein was enriched with, or labelled near, the bait; the list need not be complete.

The text below walks through data of article PMC10648221.

In this test the target is T1, SPRY domain-containing protein 7 (human). Nature of the test: affinity purification with mass spectrometry; IP with anti-SPRYD7 monoclonal antibody and Protein G agarose from 3 mg RIPA protein extract of KM12C and KM12SM cells stably overexpressing SPRYD7, 4 °C, washed 4 times with RIPA; LC-MS/MS; proteins on the precleaning beads as negative control; CRAPome filter.
In the case of VPRBP (from UniProt Q9Y4B6 1-1507), the binding entry was “binds”.

In the case of IL1RN (from UniProt P18510 26-177), the binding entry is given as “binds”.

As for SOD1 (from UniProt P00441 1-154), the binding entry is given as “binds”.

For the molecule NPHP3 (from UniProt Q7Z494 1-1330), the binding result is recorded as “binds”.

For B1, the binding result was “binds”.

In the case of B2, the binding entry was “binds”.

With B3, the binding result is “binds”.

Turning to B4, the binding entry is “binds”.

Regarding B5, the binding entry is “binds”.

Regarding B6, the binding entry is given as “binds”.
